At least one structure is not confirmed: it was looked up by name or label, or the drawing left a doubt.
Test system: Th2/Th1 cytokines
Assay: Ratio of Th2/Th1 cytokines in serum
Assay type: in vivo, mice
Conditions: compared to atopic dermatitis-induced group (DNCB)
Protocol: The Faecalibacterium prausnitzii A2-165 strain and Faecalibacterium prausnitzii EB-FPDK11 live bacteria used in this experiment were prepared at a concentration of 1×10^8 CFU/150 μl PBS (25% glycerol, 0.05% cysteine/PBS).
To observe atopic dermatitis lesions, 6-week-old NC/Nga mice (weighed about 21 to 25 g, SLC, Inc., Japan) were purchased from Daehan Biolink Co., Ltd. (Chungbuk, Korea). Animal tests were carried out in accordance with the Animal use and Care Protocol of the Institutional Animal Care and Use Committee (IACUC). The animals were acclimated for one week, and then raised for 9 weeks at a constant temperature of 22° C. and a relative humidity of 50 to 60% with a 12-hr light/12-hr dark cycle. […]
At the end of the experiment, the mice were anesthetized with CO2, and blood was collected by cardiac puncture. […] The concentrations of IL-4, IL-12, IFN-γ and IL-6 cytokines were measured using an ELISA kit (Invitrogen, CA, USA), and the results of the measurement are shown in FIGS. 16 and 17.
From an immunological point of view, allergenic atopic dermatitis is a disease caused by an excessive imbalance between Th1 and Th2 immune responses. Thus, the cytokine concentrations measured as described above were expressed as the ratio of Th2/Th1 cytokines, and the results are shown in FIGS. 18 and 19.

**Q.** C[C@@H]1C[C@H]2[C@@H]3CCC4=CC(=O)C=C[C@]4(C)[C@@]3(F)[C@@H](O)C[C@]2(C)[C@@]1(O)C(=O)CO [dexamethasone] was tested. Which “ratio of IL-6/IFN-γ” value did it give?
**A.** The value was “significantly decreased”.
